Data source: PubChem BioAssay AID743121 (NCATS, 2013)
Screen: 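Genes whose silencing strengthens cell killing by camptothecin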 (primary screen). Cells: MDA-MB-231 cells, a human breast cancer line. Knock-down reagent: single siRNA against human genes, 20 nM siRNA (0.8 pmol per well). Timing: 120 h (drug added 48 h after transfection, read 72 h later). Challenge: camptothecin 20 nM (about EC30) for 72 h; vehicle 0.1% DMSO in parallel plates. Measurement: 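Cell viability by ATP luminescence (CellTiter-Glo) as % of non-targeting siRNA wells, and the log2 ratio of viability without drug over viability with camptothecin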. Reading the numbers: log2 vehicle/camptothecin viability: higher = stronger sensitisation to camptothecin. Active means: 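Each gene scored by redundant siRNA activity (RSA) over its individual siRNA ratios; a gene is called active at p < 0.001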.
Shown is a random part of about 26,000 reagents. 167 of them (0.63%) count as active. 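Calls are per gene from RSA p-values that are not deposited; an individual active-marked siRNA can sensitise only weakly.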 The numbers tell different reagents against one gene apart. Not all columns of the deposit are shown. No sequences are given here.

Target gene | reagent | log2 vehicle/camptothecin viability | activity call
ADGRE1 | 1 | -0.218 | inactive
ADGRE1 | 2 | -0.419 | inactive
ADGRE1 | 3 | -0.481 | inactive
ADGRE1 | 4 | -0.38 | inactive
IFNA5 | 1 | 0.0435 | inactive
IFNA5 | 2 | -0.771 | inactive
IFNA5 | 3 | -0.113 | inactive
IFNA5 | 4 | -0.00816 | inactive
LMBR1L | 1 | 0.0281 | inactive
LMBR1L | 2 | -0.115 | inactive
LMBR1L | 3 | -0.0603 | inactive
LMBR1L | 4 | -0.135 | inactive
MBD1 | 1 | 0.237 | inactive
MBD1 | 2 | 0.0969 | inactive
MBD1 | 3 | 0.0496 | inactive
MBD1 | 4 | -0.218 | inactive
CHUK | 1 | -0.336 | inactive
CHUK | 2 | -0.131 | inactive
CHUK | 3 | -0.386 | inactive
CHUK | 4 | -0.218 | inactive
RAB11FIP1 | 1 | -0.0724 | inactive
RAB11FIP1 | 2 | 0.542 | inactive
RAB11FIP1 | 3 | -0.23 | inactive
RAB11FIP1 | 4 | -0.425 | inactive
UBE3C | 1 | -0.0789 | inactive
UBE3C | 2 | 0.244 | inactive
UBE3C | 3 | 0.0287 | inactive
UBE3C | 4 | -0.0046 | inactive
